ChEMBL document CHEMBL2034870, “Activity landscape modeling of PPAR ligands with dual-activity difference maps” (Bioorg Med Chem, 2012)

Experiments:
[1] = target: T1, Peroxisome proliferator-activated receptor alpha (Homo sapiens, UniProt Q07869); type: functional
T1 sequence (Q07869 whole entry): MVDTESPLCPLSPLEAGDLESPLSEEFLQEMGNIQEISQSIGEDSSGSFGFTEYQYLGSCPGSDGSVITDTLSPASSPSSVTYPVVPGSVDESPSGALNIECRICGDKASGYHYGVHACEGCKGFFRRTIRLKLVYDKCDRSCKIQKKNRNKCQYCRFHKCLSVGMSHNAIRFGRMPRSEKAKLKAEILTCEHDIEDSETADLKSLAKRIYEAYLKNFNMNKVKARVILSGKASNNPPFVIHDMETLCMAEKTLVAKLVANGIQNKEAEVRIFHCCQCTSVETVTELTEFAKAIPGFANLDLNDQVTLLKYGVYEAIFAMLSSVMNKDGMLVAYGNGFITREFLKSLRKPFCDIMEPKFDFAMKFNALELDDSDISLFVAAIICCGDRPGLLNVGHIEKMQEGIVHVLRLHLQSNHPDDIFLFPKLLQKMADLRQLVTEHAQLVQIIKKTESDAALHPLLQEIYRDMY

[2] = target: T2, Peroxisome proliferator-activated receptor delta (Homo sapiens, UniProt Q03181); type: functional
T2 sequence (Q03181 whole entry): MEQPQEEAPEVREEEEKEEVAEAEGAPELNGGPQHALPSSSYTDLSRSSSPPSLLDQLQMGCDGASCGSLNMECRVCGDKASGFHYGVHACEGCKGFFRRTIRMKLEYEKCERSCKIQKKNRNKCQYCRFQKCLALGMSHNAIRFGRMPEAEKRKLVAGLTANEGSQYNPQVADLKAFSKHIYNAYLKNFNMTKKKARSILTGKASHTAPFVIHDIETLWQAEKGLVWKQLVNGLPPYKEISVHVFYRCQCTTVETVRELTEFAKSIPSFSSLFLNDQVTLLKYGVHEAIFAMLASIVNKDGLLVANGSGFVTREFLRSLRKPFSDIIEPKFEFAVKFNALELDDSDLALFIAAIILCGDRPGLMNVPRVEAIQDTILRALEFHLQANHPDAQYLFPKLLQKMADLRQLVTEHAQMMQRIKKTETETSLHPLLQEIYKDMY

## CCc1ccc(O[C@H](C)CCOc2ccc(OC(C)(C)C(=O)O)cc2)c(C(=O)c2ccccc2)c1
[1]
  IC50: 1320 nM
[2]
  IC50: 5 nM
